Data from the supplement of paper PMC4604168 (melanoma cell lines).
The list shows a part of the results. Repeats are few or missing, and single values can be far off.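 Cells were imaged in 1,536-well plates, and nuclei stained with an antibody against cleaved PARP were counted against all DNA-stained nuclei to give the apoptosis fraction. Screening doses were chosen to leave most cells alive, and resting and induced cleaved-PARP levels differ strongly between cell lines.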

How the values were obtained:
Assay in all cases: cleaved PARP positive nuclei fraction relative to DMSO control; melanoma cells; higher = more apoptosis
Conditions in all cases: library dose: low library concentration; 72 h
MZ2-MEL = system: MZ2-MEL
MeWo = system: MeWo
RPMI7951 = system: RPMI7951
RVH-421 = system: RVH-421
SkMel28 = system: SkMel28
SkMel2 = system: SkMel2
SkMel30 = system: SkMel30
UACC62 = system: UACC62
WM115 = system: WM115
WM1716 = system: WM1716
WM1745 = system: WM1745
WM3526 = system: WM3526
WM3619 = system: WM3619
WM451Lu = system: WM451Lu

Structure (SMILES)	cleaved PARP positive nuclei fraction (MZ2-MEL)	cleaved PARP positive nuclei fraction (MeWo)	cleaved PARP positive nuclei fraction (RPMI7951)	cleaved PARP positive nuclei fraction (RVH-421)	cleaved PARP positive nuclei fraction (SkMel28)	cleaved PARP positive nuclei fraction (SkMel2)	cleaved PARP positive nuclei fraction (SkMel30)	cleaved PARP positive nuclei fraction (UACC62)	cleaved PARP positive nuclei fraction (WM115)	cleaved PARP positive nuclei fraction (WM1716)	cleaved PARP positive nuclei fraction (WM1745)	cleaved PARP positive nuclei fraction (WM3526)	cleaved PARP positive nuclei fraction (WM3619)	cleaved PARP positive nuclei fraction (WM451Lu)
Cc1cn(-c2cc(NC(=O)c3ccc(C)c(Nc4nccc(-c5cccnc5)n4)c3)cc(C(F)(F)F)c2)cn1 [nilotinib] + Cc1cc(Nc2cc(N3CCN(C)CC3)nc(/C=C/c3ccccc3)n2)n[nH]1 [ENMD2076] (first compound 0.2 µM, partner dose 0.04 µM)	70.7%	102%	103%	331%	316%	173%	171%	376%	43.2%	158%	111%	47.8%	79.4%	52.5%
N#CC[C@H](C1CCCC1)n1cc(-c2ncnc3[nH]ccc23)cn1 [ruxolitinib] + C#Cc1cccc(Nc2ncnc3cc(OCCOC)c(OCCOC)cc23)c1 [erlotinib] (first compound 1 µM, partner dose 0.8 µM)	183%	146%	164%	88.1%	218%	84.2%	87.7%	29.5%	135%	91.8%	283%	460%	92.9%	99%
N#CC[C@H](C1CCCC1)n1cc(-c2ncnc3[nH]ccc23)cn1 [ruxolitinib] + CS(=O)(=O)c1ccc(C(=O)Nc2ccc(Cl)c(-c3ccccn3)c2)c(Cl)c1 [vismodegib] (first compound 1 µM, partner dose 1 µM)	136%	173%	136%	126%	41%	54.5%	210%	81.2%	148%	40.7%	87.5%	214%	120%	133%
CCCCCCCCCCCCCCCCCCOP(=O)([O-])OC1CC[N+](C)(C)CC1 [Perifosine] + COc1ccc(Cl)c(Nc2nc3ccccc3nc2NS(=O)(=O)c2cccc(NC(=O)C(C)(C)N)c2)c1 [XL147] (first compound 0.4 µM, partner dose 0.8 µM)	15.5%	73.3%	89.8%	44.8%	27.2%	101%	79%	51.3%	50.4%	40.9%	95.4%	25.8%	98.4%	173%
CC[C@]1(O)C[C@H]2CN(CCc3c([nH]c4ccccc34)[C@@](C(=O)OC)(c3cc4c(cc3OC)N(C=O)[C@H]3[C@@](O)(C(=O)OC)[C@H](OC(C)=O)[C@]5(CC)C=CCN6CC[C@]43[C@@H]65)C2)C1 [vincristine] + O=C(O)[C@@H]1[O][Sb](=[O])([O][Sb]2(=[O])[O][C@H]([C@H](O)CO)[C@H](O)[C@H](C(=O)O)[O]2)[O][C@H]([C@H](O)CO)[C@@H]1O [stibogluconate] (first compound 0.0001 µM, partner dose 2 µM)	53%	64.3%	108%	44.2%	80.2%	76.9%	98.8%	240%	295%	272%	78%	84.2%	94%	116%
Cc1ccc(Nc2nccc(N(C)c3ccc4c(C)n(C)nc4c3)n2)cc1S(N)(=O)=O [Pazopanib] + Nc1ncn([C@H]2C[C@H](O)[C@@H](CO)O2)c(=O)n1 [decitabine] (first compound 0.4 µM, partner dose 0.1 µM)	180%	63.2%	135%	43.1%	92.9%	49.1%	36.9%	158%	41%	49.2%	90.5%	32.6%	101%	121%
O=c1[nH]nc(Sc2ncc([N+](=O)[O-])s2)n1-c1ccc2c(c1)OCCO2 + CNC(=O)c1cc(Oc2ccc(NC(=O)Nc3ccc(Cl)c(C(F)(F)F)c3)cc2)ccn1 [sorafenib] (first compound 0.2 µM, partner dose 0.4 µM)	72%	57.7%	108%	44.3%	38.6%	93.2%	67.2%	68.3%	85.7%	58.3%	91.2%	31.4%	87.8%	58%
O=C(/C=C/c1cccnc1)NCCCCC1CCN(C(=O)c2ccccc2)CC1 + CC(C)C[C@H](NC(=O)[C@H](Cc1ccccc1)NC(=O)c1cnccn1)B(O)O [Bortezomib] (first compound 0.01 µM, partner dose 0.001 µM)	608%	100%	92.5%	144%	132%	1860%	23.9%	65.5%	84.8%	300%	97%	23.7%	170%	24.2%
Cc1cn(-c2cc(NC(=O)c3ccc(C)c(Nc4nccc(-c5cccnc5)n4)c3)cc(C(F)(F)F)c2)cn1 [nilotinib] + CCCCCCCCc1ccc(CCC(N)(CO)CO)cc1 [fingolimod] (first compound 0.2 µM, partner dose 2 µM)	55.6%	63.8%	35.9%	142%	197%	101%	50.9%	106%	245%	75.8%	111%	46.9%	105%	37.4%
CC[C@]1(O)C[C@H]2CN(CCc3c([nH]c4ccccc34)[C@@](C(=O)OC)(c3cc4c(cc3OC)N(C=O)[C@H]3[C@@](O)(C(=O)OC)[C@H](OC(C)=O)[C@]5(CC)C=CCN6CC[C@]43[C@@H]65)C2)C1 [vincristine] + O=C(/C=C/c1cccnc1)NCCCCC1CCN(C(=O)c2ccccc2)CC1 [FK866] (first compound 0.0001 µM, partner dose 0.01 µM)	511%	74.7%	261%	107%	86.1%	682%	234%	83.9%	436%	146%	105%	34.3%	172%	175%
CC[C@]1(O)C[C@H]2CN(CCc3c([nH]c4ccccc34)[C@@](C(=O)OC)(c3cc4c(cc3OC)N(C=O)[C@H]3[C@@](O)(C(=O)OC)[C@H](OC(C)=O)[C@]5(CC)C=CCN6CC[C@]43[C@@H]65)C2)C1 [vincristine] + Cc1cc(Nc2cc(N3CCN(C)CC3)nc(/C=C/c3ccccc3)n2)n[nH]1 [ENMD2076] (first compound 0.0001 µM, partner dose 0.04 µM)	85.5%	274%	165%	40.3%	133%	88.7%	420%	393%	1490%	245%	183%	60.8%	177%	197%
COc1cc([C@@H]2c3cc4c(cc3[C@@H](O[C@@H]3O[C@@H]5CO[C@@H](C)O[C@H]5[C@H](O)[C@H]3O)[C@H]3COC(=O)[C@H]23)OCO4)cc(OC)c1O [etoposide] + NC1(c2ccc(-c3nc4ccn5c(=O)[nH]nc5c4cc3-c3ccccc3)cc2)CCC1 [MK2206] (first compound 0.02 µM, partner dose 0.4 µM)	117%	59.2%	99.4%	214%	115%	244%	207%	66.3%	233%	76.3%	152%	52.5%	79.8%	144%
Cc1ccc(Nc2nccc(N(C)c3ccc4c(C)n(C)nc4c3)n2)cc1S(N)(=O)=O [Pazopanib] + CN(c1ncccc1CNc1nc(Nc2ccc3c(c2)CC(=O)N3)ncc1C(F)(F)F)S(C)(=O)=O [PF562271] (first compound 0.4 µM, partner dose 0.08 µM)	147%	155%	173%	36.8%	172%	119%	93.8%	37.1%	134%	186%	108%	74.3%	101%	213%
Cc1ccc(Nc2nccc(N(C)c3ccc4c(C)n(C)nc4c3)n2)cc1S(N)(=O)=O [Pazopanib] + NC(=O)c1ccc(N(C(N)=O)c2c(F)cccc2F)nc1-c1ccc(F)cc1F [VX702] (first compound 0.4 µM, partner dose 0.4 µM)	124%	55.9%	31.3%	55.1%	76.9%	57.1%	74.6%	54.3%	68.8%	850%	112%	91.5%	85.9%	44.1%
Cc1cc(Nc2cc(N3CCN(C)CC3)nc(Sc3ccc(NC(=O)C4CC4)cc3)n2)n[nH]1 [Tozasertib] + COc1ccc(Cl)c(Nc2nc3ccccc3nc2NS(=O)(=O)c2cccc(NC(=O)C(C)(C)N)c2)c1 [XL147] (first compound 0.006 µM, partner dose 0.8 µM)	92.2%	173%	48.9%	38.8%	84.3%	91.5%	117%	213%	111%	76.9%	110%	192%	94.2%	107%
O=c1[nH]nc(Sc2ncc([N+](=O)[O-])s2)n1-c1ccc2c(c1)OCCO2 + CN1CCN(c2ccc3nc(-c4c(N)c5c(F)cccc5[nH]c4=O)[nH]c3c2)CC1 [Dovitinib] (first compound 0.2 µM, partner dose 0.1 µM)	102%	74.1%	238%	62.4%	81.6%	65.3%	74.7%	203%	106%	78.3%	97.1%	44.2%	76.3%	36.3%
Cc1cn(-c2cc(NC(=O)c3ccc(C)c(Nc4nccc(-c5cccnc5)n4)c3)cc(C(F)(F)F)c2)cn1 [nilotinib] + O=C(O)c1ccc2c(c1)nc(Nc1cccc(Cl)c1)c1ccncc12 [CX4945] (first compound 0.2 µM, partner dose 0.4 µM)	115%	74.4%	112%	47.7%	82.7%	118%	20.1%	175%	106%	79.9%	108%	82.4%	90%	29%
CCCCCCCCCCCCCCCCCCOP(=O)([O-])OC1CC[N+](C)(C)CC1 [Perifosine] + OCc1c[nH]c2ccccc12 [Indole-3-carbinol] (first compound 0.4 µM, partner dose 0.8 µM)	102%	67.4%	85.5%	186%	215%	89.6%	53.9%	53.5%	81.2%	91.6%	101%	98.8%	161%	56.8%

Laid out differently: results already given.
Structure (SMILES) | cleaved PARP positive nuclei fraction (MZ2-MEL) | cleaved PARP positive nuclei fraction (MeWo) | cleaved PARP positive nuclei fraction (RPMI7951) | cleaved PARP positive nuclei fraction (RVH-421) | cleaved PARP positive nuclei fraction (SkMel28) | cleaved PARP positive nuclei fraction (SkMel2) | cleaved PARP positive nuclei fraction (SkMel30) | cleaved PARP positive nuclei fraction (UACC62) | cleaved PARP positive nuclei fraction (WM115) | cleaved PARP positive nuclei fraction (WM1716) | cleaved PARP positive nuclei fraction (WM1745) | cleaved PARP positive nuclei fraction (WM3526) | cleaved PARP positive nuclei fraction (WM3619) | cleaved PARP positive nuclei fraction (WM451Lu)
CC[C@]1(O)C[C@H]2CN(CCc3c([nH]c4ccccc34)[C@@](C(=O)OC)(c3cc4c(cc3OC)N(C=O)[C@H]3[C@@](O)(C(=O)OC)[C@H](OC(C)=O)[C@]5(CC)C=CCN6CC[C@]43[C@@H]65)C2)C1 [vincristine] + O=C(/C=C/c1cccnc1)NCCCCC1CCN(C(=O)c2ccccc2)CC1 [FK866] (first compound 0.0001 µM, partner dose 0.01 µM) | 511% | 74.7% | 261% | 107% | 86.1% | 682% | 234% | 83.9% | 436% | 146% | 105% | 34.3% | 172% | 175%
CCCCCCCCCCCCCCCCCCOP(=O)([O-])OC1CC[N+](C)(C)CC1 [Perifosine] + OCc1c[nH]c2ccccc12 [Indole-3-carbinol] (first compound 0.4 µM, partner dose 0.8 µM) | 102% | 67.4% | 85.5% | 186% | 215% | 89.6% | 53.9% | 53.5% | 81.2% | 91.6% | 101% | 98.8% | 161% | 56.8%
